The record followed here is PubChem BioAssay AID1645883 (National Center for Advancing Translational Sciences (NCATS), 2021).

Protein sequences, listed by entry. Tags and fused reporters are not part of them. Lines headed by an entry give the natural chain unless they say otherwise; changes in a name come on top.
UniProt O95398: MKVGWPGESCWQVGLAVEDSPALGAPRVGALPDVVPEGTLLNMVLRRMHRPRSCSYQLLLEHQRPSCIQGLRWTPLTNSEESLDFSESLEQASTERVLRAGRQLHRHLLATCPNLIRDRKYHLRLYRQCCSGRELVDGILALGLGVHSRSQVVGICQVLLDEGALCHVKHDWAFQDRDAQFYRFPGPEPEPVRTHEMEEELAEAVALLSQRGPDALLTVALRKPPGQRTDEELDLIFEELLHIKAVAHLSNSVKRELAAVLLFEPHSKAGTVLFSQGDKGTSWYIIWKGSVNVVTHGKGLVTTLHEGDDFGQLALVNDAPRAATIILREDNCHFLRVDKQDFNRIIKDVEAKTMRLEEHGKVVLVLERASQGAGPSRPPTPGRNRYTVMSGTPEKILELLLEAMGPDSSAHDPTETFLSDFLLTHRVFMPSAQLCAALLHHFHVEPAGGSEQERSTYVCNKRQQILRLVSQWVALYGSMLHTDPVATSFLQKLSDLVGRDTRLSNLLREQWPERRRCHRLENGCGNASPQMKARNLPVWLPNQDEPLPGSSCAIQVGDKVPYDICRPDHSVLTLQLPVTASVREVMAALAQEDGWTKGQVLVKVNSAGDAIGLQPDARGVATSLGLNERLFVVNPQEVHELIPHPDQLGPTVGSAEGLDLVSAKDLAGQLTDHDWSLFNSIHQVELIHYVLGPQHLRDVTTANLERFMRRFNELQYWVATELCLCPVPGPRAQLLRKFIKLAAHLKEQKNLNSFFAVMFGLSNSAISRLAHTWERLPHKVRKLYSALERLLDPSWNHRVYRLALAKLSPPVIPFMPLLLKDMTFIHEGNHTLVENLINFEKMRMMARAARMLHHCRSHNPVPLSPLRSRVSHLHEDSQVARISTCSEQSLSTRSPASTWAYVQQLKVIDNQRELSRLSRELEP

Shown are results outside the selection of hits, which stands elsewhere. Records with an inconclusive call do not appear. Active and inactive are the calls of the source. Calls come from the whole dose curve; as a rule, active = well fitted activation curve with a large enough effect; inconclusive = small, poorly fitted or top-dose-only effect; inactive = no such curve, though single readings can be large or run the other way.
% is set by controls: 0 for no effect and ±100 for the full control effect.

For this experiment, the target named is Rap guanine nucleotide exchange factor 3 (Homo sapiens) (UniProt O95398). In words: Validation qHTS for agonist of cAMP-regulated guanine nucleotide exchange factor 3 (EPAC1). Note: nearly all actives have a fitted effect of over 70% in size. The note with it: EPAC1 Rap1b BODIPY-GDP exchange, fluorescence; hits give high values; percent of cAMP control response. The text has this:
Assay Provider (PI): Xiaodong Cheng Ph.D.
The University of Texas Medical Branch, […], TX
In multi-cellular eukaryotic organisms, the effects of cAMP are transduced by two ubiquitously-expressed intracellular cAMP receptors, the classic protein kinase A/cAMP-dependent protein kinase (PKA/cAPK) and the more recently discovered exchange protein directly activated by cAMP/cAMP-regulated guanine nucleotide exchange factor (EPAC/cAMP-GEF). Both PKA and EPAC are ubiquitously expressed in all tissues, and an increase in intracellular cAMP levels will lead to the activation of both PKA and EPAC. […]
This qHTS will be used to screen the Molecular Libraries Small Molecule Repository (MLSMR) as a concentration-titration series using the NCGC unique quantitative screening (qHTS) platform to find activators for EPAC1. […] Activators are identified by monitoring the change in fluorescence signal as the exchanged free BODIPY-GDP has a reduced fluorescence compared to Rap1-bound BODIPY-GDP. […]
Briefly, three uL of reagents (100 nM EPAC1, 250 nM RAP1B-BODIPY-GDP, 50 uM GDP) were dispensed into a 1536-well Greiner black solid-bottom medium binding assay plate. […] The assay plates were read at 5 minute intervals for 30 minutes in the ViewLux plate reader using 480nm excitation and 540nm emission filters. […]
A general note: In qHTS, concentration-response curves come from the screen itself.
Consider `CC(C)(C)c1ccc(O)cc1`, for which the max response is inactive: -61.6%.
